“And” between values parts separate entries of the source, which are not always exact repeats. Identical values can stand only once. The list shows a part of the results. These are further read-outs of the screen, such as a control signal, another cell line or another target. No call is given for them. Compounds called inactive in the main read-out are mostly missing here. Potencies come from curve fits of mixed quality, noted in brackets.

This assay is described as follows: qHTS Assay for Modulators of Lamin A Splicing. Particulars: HeLa LMNA splicing GFP/RFP minigene ratio, 48 h. In outline:
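S3 HeLa cells stably expressing lamin A-EGFP splicing minigene plus DsRed2, 600 cells/well, 48 h compound exposure at 37C. Laser-scanning cytometry; analysed as GFP (500-530 nm)/RFP (575-640 nm) total intensity ratio; 0.5% DMSO vehicle.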

Setting [1] is: measured here: GFP splicing reporter channel.
Where [2] appears, read: measured here: RFP viability control channel.

`CC1=CC(=O)C=C(C)C1=NOc1ccc([N+](=O)[O-])cc1`: the AC50 under setting [1] was 0.0316 µM [rising, full curve, poor fit].
As to `Cc1cccc(CNC(=O)C2CCN(S(=O)(=O)c3cccc4nonc34)CC2)c1`, the AC50 under setting [2] was 3.55 µM [falling, single point].
Consider `CC1=CC(C)(C)Nc2ccc(OS(=O)(=O)c3ccc(C)cc3)cc21`, for which, under setting [1], the AC50 is 15.8 µM [rising, single point].
For `O=c1cc(O)c2c(=O)n(-c3ccccc3)c3c(c2o1)CCCCC3`, the AC50 is 0.794 µM [rising, full curve, poor fit] under setting [1] and 3.16 µM [rising, partial curve, poor fit] under setting [2].
On to `Cc1ccc(C(C)C)c(OCc2ccc(-c3nnco3)cc2)c1`, for which the AC50 under setting [1] was 0.00891 µM [rising, full curve, poor fit] and the AC50 under setting [2] is 35.5 µM [rising, single point].
Consider `O=C(Nc1ccc(Br)cc1)c1ccc(Br)c(S(=O)(=O)Nc2cccnc2)c1`, for which the half-maximal activity concentration (AC50) under setting [1] was 35.5 µM [falling, single point].
`O=C(COC(=O)c1cc(-c2cccs2)nc2ccccc12)NCc1ccco1`: under setting [2], the AC50 was 22.4 µM [falling, partial curve, poor fit].
Turning to `Cn1c(=O)c(C(=S)NC(=O)C2CC2)c(N)n(Cc2ccccc2)c1=O`, the AC50 under setting [2] was 31.6 µM [rising, single point].
For `Cc1ccccc1OCC(=O)N/N=C/c1ccncc1`, the AC50 under setting [2] is 0.0224 µM [rising, full curve, poor fit].
As for `COc1ccc(N2CCN(Cc3cc(=O)oc4cc(-c5ccccc5)c(O)cc34)CC2)cc1`, the AC50 under setting [1] was 10 µM [rising, single point].
Regarding `Cc1nc2c3cc(Cl)ccc3n(CCN3CCCCC3)c2s1`, the AC50 under setting [2] is 31.6 µM [rising, single point].
The same measure, in the same setting: the figure for `O=C1NCCCC2c3cc(O)c4ccccc4c3OC12N1CCCCC1` (centres undefined) is 35.5 µM [rising, single point].
Consider `COc1ccc(CNc2ccnc(-c3c(C)noc3C)n2)c(OC)c1`, for which, under setting [1], the half-maximal activity concentration (AC50) was 11.2 µM [falling, partial curve, poor fit].
In the case of `Clc1ccc(CSc2nnc(Cn3cnc4ccccc43)o2)cc1`, the AC50 under setting [2] is 11.2 µM [rising, partial curve].
Take `Cc1ccc(N/N=C/c2cccnc2)cc1`: the AC50 under setting [2] is 35.5 µM [rising, single point].
In the case of `CC(C)CC(NC(=O)C(CC(C)C)NC(=O)C(Cc1ccc(OCc2ccccc2)cc1)NC(=O)OC(C)(C)C)C(N)=O` (centres undefined), the AC50 is, setting by setting: under setting [1], 31.6 µM [falling, single point]; under setting [2], 35.5 µM [falling, single point].
Turning to `CC1Cc2ccccc2N1c1ncnc(N)c1[N+](=O)[O-]` (centres undefined), the AC50 under setting [2] was 0.00501 µM [falling, full curve, poor fit].
Take `COc1ccc(S(=O)(=O)NCC(c2ccco2)S(=O)(=O)c2cccs2)cc1OC` (centres undefined): the AC50 under setting [2] is 11.2 µM [rising, partial curve].
Consider `CC(=O)Nc1cccc(C(=O)/C=C/c2ccc(Br)cc2)c1`, for which the AC50 under setting [2] is 22.4 µM [falling, single point].
For `CCOc1ccc(NC(=O)c2cccc(OC(=S)N3CCOCC3)c2)cc1`, under setting [2], the AC50 is 2.82 µM [falling, partial curve].
Still for that read-out and setting: to `CCc1ccc(CNC(=O)c2cc3c(C)nc4ccccc4c3o2)cc1` belongs 6.31 µM [rising, single point].
With `COc1ccc(CC(=O)Nc2cc3oc4ccccc4c3cc2OC)cc1`, the concentration at half-maximal activity (AC50) under setting [1] was 25.1 µM [rising, single point] and the AC50 under setting [2] is 25.1 µM [rising, partial curve].
As for `O=C(CC(=O)N/N=C/c1ccccc1O)NCc1cccnc1`, the AC50 under setting [2] was 31.6 µM [rising, single point].
Take `Cc1cccc(N=C2NN=C(c3c(C)[nH]c4ccccc34)CS2)c1`: the AC50 under setting [2] is 17.8 µM [falling, partial curve].
For `CCCCOC(=O)CCNc1n[nH]c(=O)[nH]c1=O`, the AC50 under setting [2] is 2.24 µM [falling, partial curve].
Consider `CCOc1ccccc1-n1nnnc1SCC(=O)NCc1ccco1`, for which, under setting [2], the AC50 was 0.0631 µM [falling, full curve, poor fit].
In the case of `C=CCOCCN(C)C1=NS(=O)(=O)c2cc([N+](=O)[O-])ccc21`, the AC50 by setting is: under setting [1], 15.8 µM [falling, single point]; under setting [2], 35.5 µM [falling, single point].
With `CCNC(=O)CC1SC(=Nc2cccc(Cl)c2C)N(C)C1=O` (centres undefined), the AC50 under setting [2] is 25.1 µM [rising, single point].
With `CN(Cc1cccs1)c1ncnc2sccc12`, the AC50 under setting [2] was 4.47 µM [rising, full curve].
For `CC(C)(C)n1nnnc1C(c1ccc2ncccc2c1)N1CCSCC1` (centres undefined), the AC50 under setting [1] is 12.6 µM [falling, partial curve].
For `CCOC(=O)c1c(C)nn(-c2ncccc2NC(=O)CCC(=O)O)c1C`, the AC50 under setting [1] was 0.316 µM [falling, partial curve, poor fit].
As for `Cc1cc(C)c2nc(NNC(=O)c3ccc(S(=O)(=O)N4CC(C)CC(C)C4)cc3)sc2c1` (centres undefined), the AC50 under setting [1] was 35.5 µM [falling, single point].
With `COC(=O)C1=CN(c2ccc(OC)cc2)C=C(C(=O)OC)C1c1ccc(C)c([N+](=O)[O-])c1`, the concentration at half-maximal activity (AC50) under setting [1] is 35.5 µM [rising, single point].
With `CC1=NN(c2ccccc2)C(=O)C1N=Nc1ccc(N)cc1` (centres undefined), under setting [2], the AC50 is 10 µM [rising, partial curve].
As for `Cc1ccc(OCCSc2nc3ccc(NC(=O)COc4ccc(C)cc4)cc3s2)cc1`, the AC50 is, setting by setting: under setting [1], 35.5 µM [falling, partial curve]; under setting [2], 35.5 µM [falling, single point].
Take `COc1ccc(N2C(=O)C3CCCCC3C2=O)cc1NC(=O)c1ccccc1` (centres undefined): the AC50 was 0.0158 µM [falling, full curve, poor fit] under setting [1] and 0.0158 µM [falling, full curve, poor fit] under setting [2].
As for `CC(C)c1nc(N2CCOCC2)c(C#N)c2c1CCC2`, the AC50 reads like this: under setting [1], 22.4 µM [rising, single point]; under setting [2], 15.8 µM [rising, partial curve, poor fit].
As for `CC1CCN(C(=O)c2ccc(CSc3nc4ccncc4n3Cc3ccc(F)cc3)cc2)CC1`, the AC50 under setting [1] is 8.91 µM [rising, partial curve] and the AC50 under setting [2] was 14.1 µM [rising, partial curve].
Consider `CN1CCN(S(=O)(=O)c2cccc(S(=O)(=O)c3ccc(Cl)cc3)c2)CC1`, for which the AC50 is, setting by setting: under setting [1], 12.6 µM [rising, partial curve]; under setting [2], 14.1 µM [rising, partial curve].
In the case of `Cc1nc(Sc2nnnn2C)c2c3c(sc2n1)CCC3`, under setting [1], the AC50 is 3.98 µM [falling, full curve].
Consider `O=C(CCN1CCOCC1)Nc1ccccc1`, for which the AC50 under setting [2] was 0.355 µM [falling, full curve, poor fit].
For `NNCCc1ccccc1`, the AC50 runs as follows: under setting [1], 501 nM [falling, partial curve, poor fit] and 2.51 µM [rising, full curve, poor fit]; under setting [2], 0.501 µM [falling, partial curve, poor fit].
In the case of `CCCCNC(=O)c1ccc(-c2nc(CN3CCc4ccccc43)c(C)o2)cc1`, the AC50 is, setting by setting: under setting [1], 4.47 µM [falling, full curve, poor fit]; under setting [2], 7.08 µM [falling, full curve].
`Fc1ccc(CN2C3=NCCCN3c3ccccc32)cc1`: the AC50 under setting [2] is 25.1 µM [rising, single point].
For the molecule `O=C(CSc1nc2c(c(C(F)(F)F)n1)CCc1ccccc1-2)NCc1ccco1`, the AC50 under setting [1] was 4.47 µM [rising, partial curve, poor fit].
As for `CCOC(=O)c1ccccc1NC(=O)Cc1sc(-c2cccnc2)nc1-c1ccc(C)cc1`, under setting [2], the AC50 was 14.1 µM [rising, single point].
The same measure, in the same setting: the figure for `CN(C)c1ccc(NC(=O)/C=C/c2c(Cl)cccc2Cl)cc1` is 6.31 µM [rising, partial curve].
`CN1CCN(CC(=O)N2CCn3c4c(c5cc(C6CCCCC6)ccc53)CCCC42)CC1` (centres undefined): the AC50 runs as follows: under setting [1], 28.2 µM [falling, single point]; under setting [2], 35.5 µM [falling, single point].
On to `O=C(Nc1nccs1)C1CCN(S(=O)(=O)c2ccc3c(c2)OCCCO3)CC1`, for which, under setting [2], the AC50 is 11.2 µM [rising, partial curve].
Regarding `NC(=O)c1ccccc1NC(=O)CCc1ccccc1`, the AC50 under setting [2] is 25.1 µM [rising, partial curve, poor fit].
On the same count and under the same terms, to `CN(c1ccccc1C(=O)NC1CC2CCC1C2)S(=O)(=O)c1ccccc1` (centres undefined) belongs 0.112 µM [rising, full curve, poor fit].
With `Cc1ccc(S(=O)(=O)N2CCC(=O)N(CCOCc3cccc(Cl)c3)CC2)cc1`, the AC50 reads like this: under setting [1], 35.5 µM [rising, single point]; under setting [2], 35.5 µM [rising, single point].
For the molecule `COc1nc(C)nc2c1sc(=S)n2C`, the AC50 under setting [1] was 6.31 µM [rising, full curve, poor fit].
Turning to `O=C(C1CCCCC1)N(CCN1CCCC1)c1nc2ccccc2s1`, the AC50 was 0.02 µM [rising, full curve, poor fit] under setting [1] and 5.62 µM [rising, single point] under setting [2].
Regarding `O=C(NCc1ccccc1F)C(=O)NCC(c1cccs1)S(=O)(=O)c1cccs1` (centres undefined), under setting [1], the AC50 is 0.0316 µM [falling, full curve, poor fit].
Take `CCCCCn1nnc2c(=O)oc3ccccc3c21`: the AC50 is, setting by setting: under setting [1], 17.8 µM [falling, partial curve, poor fit]; under setting [2], 14.1 µM [rising, single point].
For `CCN(CC)S(=O)(=O)c1cc(NC(=O)CSc2nc3c(cc2C#N)C(=O)CC(C)(C)C3)ccc1C`, the AC50 under setting [2] is 10 µM [rising, partial curve].
With `C=CCn1c(NC(=O)c2ccccc2Cl)c(C#N)c2nc3ccccc3nc21`, the AC50 under setting [2] was 11.2 µM [rising, single point].

Values taken from PubChem BioAssay AID1487 (National Center for Advancing Translational Sciences (NCATS), 2009).
